Experimental data published in patent publication US9574174B2, “Cell culture” (PLASTICELL LIMITED, priority 2002, dated 2017).
At least one compound was matched to its structure with a doubt left.

System: mouse ES cells
Assay: RT-PCR detection of differential gene expression in ES cell units after split-split culture
Format: cell-based
Conditions: 1 μM, FIG. 11
Procedure: Pluripotent mouse ES cell units were cultured for five days in ES cell medium (see example 3), the ES medium was decanted and the cell units washed twice with PBS to remove traces of ES medium. The bead population was split into three groups, and the PBS decanted and replaced with one of (i) ES cell medium; (ii) Dulbecco's modified Eagle's medium (DMEM) with 10% fetal calf serum; or (iii) Chemically Defined Medium (CDM; Wiles M V, Johansson B M, 1999, Exp. Cell Res., vol 247, p. 241-8). After one hour culture under standard conditions, each of the three groups were split into three further groups, each of which was incubated in one of: (i) the medium in which the cell groups were cultured; the medium in which the cell groups were cultured including 1 μM LiCl; or (iii) the medium in which the cell groups were cultured including 1 μm retinoic acid (RA). Every other day half the medium was replaced with the respective fresh medium.
Cell units of mouse ES cells induced to differentiate by split-split culture (see example 4) were washed with PBS, and RNA prepared from the cell units using Rneasy reagents according to manufacturer's instructions (Qiagen). RNA samples were then used to prepare first strand cDNA with oligo-dT priming using reverse transcriptase according to the manufacturer's instructions (Invitrogen). […]

CC1=C(/C=C/C(C)=C/C=C/C(C)=C/C(=O)O)C(C)(C)CCC1 [RA, retinoic acid]
expression of Nestin, a marker of neuronal precursors (DMEM): led to expression of Nestin
expression of the endodermal marker HNF3β (ES medium, CYTOPORE 2 microcarriers): induced expression
